Data as given in PubChem BioAssay AID1259308 (NCATS, 2017)
Shown is a random part of about 59,000 reagents tested. Of all reagents, about 1,510 (2.6%) got an active call. 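Calls use total luciferase alone and ignore viability, so some active siRNAs may act by altering cell number.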 Unmarked entries are inactive. Reagents against one gene are numbered here.

Assay: 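Genes whose loss raises luciferase production in HEK293 cells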 (primary screen)
Cells: human HEK293 embryonic kidney cells stably expressing firefly luciferase (HEK-CMV-Luc2-Hygro)
Reagents: single siRNA against human genes, 0.8 pmol siRNA per well
Timing: 72 h
Measured: 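Reporter luminescence and viable-cell signal on separate replicate plates, given as percent of non-targeting control and median/MAD z-scores, plus per-cell luciferase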
Scale: total luciferase, z-score and total luciferase, % of control: higher = more reporter protein produced; luciferase per cell, z-score: higher = more reporter output per viable cell; viable cells, % of control: higher = more viable cells
Active means: 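An siRNA counts as active if its total luciferase robust z-score exceeds 3; genes with two or more such siRNAs out of three were retested with fresh siRNAs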
Meaning of the calls: active = raised luciferase; inactive = no rise

Gene | reagent | total luciferase, z-score | total luciferase, % of control | luciferase per cell, z-score | viable cells, % of control
LRGUK | 1 | -1.35 | 55 | 0.0983 | 59.9
LRGUK | 2 | 1.03 | 102 | 0.301 | 106
LRGUK | 3 | 1.5 | 112 | 1.93 | 75
ETV2 | 1 | 1.59 | 114 | 0.737 | 105
ETV2 | 2 | -1.8 | 46 | -1 | 67
ETV2 | 3 | 3.98 (active) | 161 | 2.38 | 96.2
KRTAP17-1 | 1 | -0.252 | 76.9 | -0.954 | 110
KRTAP17-1 | 2 | 1.07 | 103 | 1.69 | 73.9
KRTAP17-1 | 3 | -1.95 | 43 | -0.811 | 59.5

Next part; the last 3 above are carried over.
Gene | reagent | total luciferase, z-score | total luciferase, % of control | luciferase per cell, z-score | viable cells, % of control
KRTAP17-1 | 1 | -0.252 | 76.9 | -0.954 | 110
KRTAP17-1 | 2 | 1.07 | 103 | 1.69 | 73.9
KRTAP17-1 | 3 | -1.95 | 43 | -0.811 | 59.5
CC2D1A | 1 | -0.0629 | 80.6 | -0.738 | 109
CC2D1A | 2 | 2.33 | 128 | 1.55 | 95.3
CC2D1A | 3 | 0.68 | 95.4 | 0.151 | 102
S1PR2 | 1 | -0.767 | 66.6 | -0.878 | 93.8
S1PR2 | 2 | -1.21 | 57.8 | -1.32 | 91.4
S1PR2 | 3 | 2.01 | 122 | 1.06 | 103
RMP64 | 1 | -0.781 | 66.3 | -0.227 | 78.7
RMP64 | 2 | 0.271 | 87.3 | -0.171 | 102
RMP64 | 3 | -1.67 | 48.6 | -1.48 | 80.2
TRAPPC2 | 1 | -1.56 | 50.8 | -0.907 | 72
TRAPPC2 | 2 | 2.43 | 130 | 1.93 | 87.7
TRAPPC2 | 3 | -0.778 | 66.4 | -1.26 | 103
KRT38 | 1 | -2.78 | 26.6 | -3.05 | 66.3
KRT38 | 2 | 0.57 | 93.2 | 0.44 | 92.8
KRT38 | 3 | -1.5 | 52.1 | -1.25 | 80.9
